# In article PMC5258865:
# These are yes or no findings as the source states them, for the method shown. Where a sequence is shown, tags or fusion partners need not be part of it.
# B1: OsASR5 (abscisic acid, stress and ripening protein 5), BD (GAL4-binding domain)-OsASR5 fusion (protein, UniProt Q53JF7 1-138)
# chain: MAEEKHHHHLFHHKKDDEPATGVDSYGEGVYTSETVTTEVVAGGQDEYERYKKEEKQHKHKQHLGEAGALAAGAFALYEKHEAKKDPENAHRHKITEEIAATAAVGAGGYAFHEHHEKKKDHKSAEESTGEKKHHLFG
# Biological target: OsASR5 (abscisic acid, stress and ripening protein 5), BD (GAL4-binding domain)-OsASR5 fusion (rice (Oryza sativa L. ssp. japonica)) (UniProt Q53JF7)
# Experiment: two-hybrid; homodimerisation test of OsASR5 in yeast (Figure S8)
binder,measurement,value
B1,binding,no binding
